Our source for the binding signal values is PMC5996148.

Values joined by “and” are separate entries in the source; they are usually repeats but may differ in a detail not shown here. Equal values may be shown once. The list shows a part of the results. For some of these results: The source does not settle which construct or isoform was used.

Test systems include NME1 (human); NME5 (human); NME6 (human); NME7 (human); NMI (human); NMNAT2 (human); NOL6 (human); NOTUM (human); NPC2 (human).
Common to all, as to test: protein microarray (ProtoArray v5.0), streptavidin-Alexa Fluor 647
Settings in all cases: 3'-biotin; 20 mM Tris (pH 7.5), 5 mM MgCl2, 100 mM KCl, 0.1% Tween-20, A/T-rich and random oligonucleotide blockers; temperature not stated; high values mean tight binding

The target of a further assay is T1, NOL7 (UniProt Q9UMY1).
T1 sequence: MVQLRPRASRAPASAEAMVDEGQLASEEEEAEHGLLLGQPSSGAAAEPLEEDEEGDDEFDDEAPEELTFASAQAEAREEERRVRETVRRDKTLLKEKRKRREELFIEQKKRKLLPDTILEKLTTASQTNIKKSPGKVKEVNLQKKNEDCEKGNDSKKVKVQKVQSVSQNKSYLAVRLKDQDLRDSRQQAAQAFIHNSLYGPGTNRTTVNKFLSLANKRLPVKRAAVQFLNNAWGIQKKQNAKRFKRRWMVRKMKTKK

Take “GGGAGGCTGAGGCAGG [G4-1 biotinylated (PQS2)]”: the binding signal is -0.34 z-score and -0.36 z-score in the assay on NME1 (human); -0.342 z-score in the assay with NME5 (human); -0.347 z-score in the assay on NME6 (human); -0.294 z-score in the assay on NME7 (human); -0.326 z-score in the assay on NMI (human); -0.346 z-score in the assay with NMNAT2 (human). Further, the binding signal in the assay on NOL6 (human) is -0.328 z-score; in the assay with NOL7 it was 4.76 z-score; in the assay with NOTUM (human), -0.307 z-score; in the assay with NPC2 (human) it was -0.322 z-score.
